The source of these data is PMC10958842.

No constants are given. Whether binding was seen depends on the method and setting. Binding seen in cells or lysates may run through a third protein. Some results given as binding are weak or reduced against the parent protein; the word gives no strength.

The assay concerns the target T1, THOC6 (human (endogenous in GBC cells)) (UniProt Q86W42).
T1 sequence: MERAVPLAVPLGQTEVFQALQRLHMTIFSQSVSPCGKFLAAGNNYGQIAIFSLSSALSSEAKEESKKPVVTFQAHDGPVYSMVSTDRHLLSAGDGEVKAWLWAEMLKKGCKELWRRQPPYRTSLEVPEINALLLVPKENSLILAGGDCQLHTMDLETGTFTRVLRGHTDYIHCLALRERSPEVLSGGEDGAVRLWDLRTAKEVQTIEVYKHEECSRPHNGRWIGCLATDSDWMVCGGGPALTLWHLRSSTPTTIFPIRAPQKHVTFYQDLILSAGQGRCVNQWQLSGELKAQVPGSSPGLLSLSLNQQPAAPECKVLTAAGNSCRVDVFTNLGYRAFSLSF
Put plainly: co-IP; antibody on protein A/G magnetic beads incubated with cell lysate at 4 °C overnight, washed three times with lysis buffer, western blot; GBC cells (NOZ); also after knockdown or overexpression of lncBCL2L11 in the cells and after exogenous reduction or increase of lncBCL2L11 in the lysate. On the technique in general: A western blot detects proteins with antibodies after separation by electrophoresis.

B1: THOC5 (protein, UniProt Q13769 1-683)
chain: MSSESSKKRKPKVIRSDGAPAEGKRNRSDTEQEGKYYSEEAEVDLRDPGRDYELYKYTCQELQRLMAEIQDLKSRGGKDVAIEIEERRIQSCVHFMTLKKLNRLAHIRLKKGRDQTHEAKQKVDAYHLQLQNLLYEVMHLQKEITKCLEFKSKHEEIDLVSLEEFYKEAPPDISKAEVTMGDPHQQTLARLDWELEQRKRLAEKYRECLSNKEKILKEIEVKKEYLSSLQPRLNSIMQASLPVQEYLFMPFDQAHKQYETARHLPPPLYVLFVQATAYGQACDKTLSVAIEGSVDEAKALFKPPEDSQDDESDSDAEEEQTTKRRRPTLGVQLDDKRKEMLKRHPLSVMLDLKCKDDSVLHLTFYYLMNLNIMTVKAKVTTAMELITPISAGDLLSPDSVLSCLYPGDHGKKTPNPANQYQFDKVGILTLSDYVLELGHPYLWVQKLGGLHFPKEQPQQTVIADHSLSASHMETTMKLLKTRVQSRLALHKQFASLEHGIVPVTSDCQYLFPAKVVSRLVKWVTVAHEDYMELHFTKDIVDAGLAGDTNLYYMALIERGTAKLQAAVVLNPGYSSIPPVFQLCLNWKGEKTNSNDDNIRAMEGEVNVCYKELCGPWPSHQLLTNQLQRLCVLLDVYLETESHDDSVEGPKEFPQEKMCLRLFRGPSRMKPFKYNHPQGFFSHR
Turning to B1, the binding entry was “binds”.
